Measured values published in patent publication US20160347841A1 (UNIVERSIDAD NACIONAL AUT NOMA DE M XICO, published 2016).

Key:
[1] = target: DEC-205 receptor of Gallus gallus (Gallus gallus); assay: immunoprecipitation from lysate of LPS-stimulated chicken spleen white cells, SDS-PAGE
[2] = target: DEC-205 receptor of Gallus gallus (Gallus gallus); assay: immunoprecipitation from chicken spleen cell lysate, SDS-PAGE

binding [1]: binds | binding [2]: binds
B1: murine monoclonal antibody 2F2E8E3B6 anti-CTLD-2 (antibody, IgG2a, V domains shown)
VH: EVQLQQSTAEFVKPGASVKLSCTASGFNIKDTYIHWVKQRPEQGLEWIGRIDPANGNTRYDPKFQGKATMTADTSSNTAYLQLSSLTSEDTAVYYCARYDVTYWGQGTLVTVS
VL: DIVMSQSPSSLAVSAGERVTMSCKSSQSLLNSRTRKNYLAWYQQKPGQSPKLLIYWASTRESGVPDRFTGSGSGTDFTLTISSVRAEDLAVYYCKQSYNLYTFGRGTKLEIK
notes: also called 2F2E8D3B6; AbM 2F2E8E3B6

Results are given in words; binding and its absence hold for the method and conditions named. Binding can be weak; no strength is given.
